This note sets out measurements from publication PMC10965980.

Protein sequences, listed by entry. Tags and fused reporters are not part of them. Lines headed by an entry give the natural chain unless they say otherwise; changes in a name come on top. Chains listed by the source or under a name are the forms on record and can include a tag or linker. Residues count along the entry.
metabotropic glutamate receptor 1 (mGluR1) (P97772, residues 21-1199): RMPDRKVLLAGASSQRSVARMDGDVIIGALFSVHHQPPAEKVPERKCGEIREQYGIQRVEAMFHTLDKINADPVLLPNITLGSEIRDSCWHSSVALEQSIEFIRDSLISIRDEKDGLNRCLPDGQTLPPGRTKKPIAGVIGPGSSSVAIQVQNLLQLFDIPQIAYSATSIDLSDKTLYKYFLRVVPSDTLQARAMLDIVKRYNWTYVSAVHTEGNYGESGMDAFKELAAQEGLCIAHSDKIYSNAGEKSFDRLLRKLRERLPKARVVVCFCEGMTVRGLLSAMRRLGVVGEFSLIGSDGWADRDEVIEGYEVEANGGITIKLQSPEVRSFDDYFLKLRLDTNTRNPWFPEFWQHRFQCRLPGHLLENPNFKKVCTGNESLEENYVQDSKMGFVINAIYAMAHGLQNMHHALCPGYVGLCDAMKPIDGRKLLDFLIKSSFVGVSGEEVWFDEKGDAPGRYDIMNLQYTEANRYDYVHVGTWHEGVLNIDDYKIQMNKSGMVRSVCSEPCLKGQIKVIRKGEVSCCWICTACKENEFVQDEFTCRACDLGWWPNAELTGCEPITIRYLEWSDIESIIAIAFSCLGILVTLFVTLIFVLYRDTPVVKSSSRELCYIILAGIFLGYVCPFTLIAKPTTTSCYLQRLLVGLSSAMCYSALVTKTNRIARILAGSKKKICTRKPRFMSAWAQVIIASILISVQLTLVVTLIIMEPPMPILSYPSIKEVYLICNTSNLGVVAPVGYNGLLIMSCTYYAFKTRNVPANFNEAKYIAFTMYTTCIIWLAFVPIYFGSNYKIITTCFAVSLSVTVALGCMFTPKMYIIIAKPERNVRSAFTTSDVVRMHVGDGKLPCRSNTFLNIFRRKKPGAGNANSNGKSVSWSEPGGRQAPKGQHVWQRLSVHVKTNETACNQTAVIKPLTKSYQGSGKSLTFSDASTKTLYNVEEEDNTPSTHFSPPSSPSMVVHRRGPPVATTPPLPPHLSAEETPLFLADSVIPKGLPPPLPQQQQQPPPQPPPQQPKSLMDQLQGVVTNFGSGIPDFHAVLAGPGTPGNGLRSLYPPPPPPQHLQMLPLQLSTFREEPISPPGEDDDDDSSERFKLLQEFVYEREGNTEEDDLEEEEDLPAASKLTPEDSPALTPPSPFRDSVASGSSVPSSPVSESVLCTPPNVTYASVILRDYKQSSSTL
mGluR1 with a dephosphomimetic Homer-binding site mutation (S1154A) (P97772, form named): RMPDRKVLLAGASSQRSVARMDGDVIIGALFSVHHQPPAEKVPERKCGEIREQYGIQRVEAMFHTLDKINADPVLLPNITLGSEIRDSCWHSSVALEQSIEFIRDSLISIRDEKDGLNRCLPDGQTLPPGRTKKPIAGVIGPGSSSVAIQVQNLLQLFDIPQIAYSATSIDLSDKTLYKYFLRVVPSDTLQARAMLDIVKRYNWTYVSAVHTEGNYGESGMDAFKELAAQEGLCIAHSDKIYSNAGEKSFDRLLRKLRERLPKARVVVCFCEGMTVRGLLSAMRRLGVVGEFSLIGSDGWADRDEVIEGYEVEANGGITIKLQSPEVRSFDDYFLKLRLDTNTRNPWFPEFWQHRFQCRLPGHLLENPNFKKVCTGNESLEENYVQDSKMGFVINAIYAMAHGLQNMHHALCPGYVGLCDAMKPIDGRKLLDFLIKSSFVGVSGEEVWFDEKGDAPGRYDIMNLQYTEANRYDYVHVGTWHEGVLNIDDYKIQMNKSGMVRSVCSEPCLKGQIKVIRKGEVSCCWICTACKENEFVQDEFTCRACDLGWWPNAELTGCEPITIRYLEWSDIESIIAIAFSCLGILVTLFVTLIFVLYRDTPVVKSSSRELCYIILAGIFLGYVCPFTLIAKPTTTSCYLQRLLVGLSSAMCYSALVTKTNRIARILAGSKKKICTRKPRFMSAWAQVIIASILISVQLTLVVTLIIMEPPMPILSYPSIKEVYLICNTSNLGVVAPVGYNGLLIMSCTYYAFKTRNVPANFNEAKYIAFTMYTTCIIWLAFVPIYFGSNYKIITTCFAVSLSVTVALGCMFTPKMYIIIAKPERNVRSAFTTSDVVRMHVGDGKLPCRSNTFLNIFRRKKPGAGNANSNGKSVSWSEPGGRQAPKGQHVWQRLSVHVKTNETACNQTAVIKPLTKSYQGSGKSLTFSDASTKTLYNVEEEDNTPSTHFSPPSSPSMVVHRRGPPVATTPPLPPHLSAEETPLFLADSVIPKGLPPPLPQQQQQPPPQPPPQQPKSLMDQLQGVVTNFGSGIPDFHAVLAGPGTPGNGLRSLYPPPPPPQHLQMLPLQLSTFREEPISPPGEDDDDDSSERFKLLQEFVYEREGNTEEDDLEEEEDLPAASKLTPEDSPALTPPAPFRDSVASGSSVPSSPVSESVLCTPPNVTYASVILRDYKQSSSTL
mGluR1 with a phosphomimetic Homer-binding site mutation (S1154D) (P97772, form named): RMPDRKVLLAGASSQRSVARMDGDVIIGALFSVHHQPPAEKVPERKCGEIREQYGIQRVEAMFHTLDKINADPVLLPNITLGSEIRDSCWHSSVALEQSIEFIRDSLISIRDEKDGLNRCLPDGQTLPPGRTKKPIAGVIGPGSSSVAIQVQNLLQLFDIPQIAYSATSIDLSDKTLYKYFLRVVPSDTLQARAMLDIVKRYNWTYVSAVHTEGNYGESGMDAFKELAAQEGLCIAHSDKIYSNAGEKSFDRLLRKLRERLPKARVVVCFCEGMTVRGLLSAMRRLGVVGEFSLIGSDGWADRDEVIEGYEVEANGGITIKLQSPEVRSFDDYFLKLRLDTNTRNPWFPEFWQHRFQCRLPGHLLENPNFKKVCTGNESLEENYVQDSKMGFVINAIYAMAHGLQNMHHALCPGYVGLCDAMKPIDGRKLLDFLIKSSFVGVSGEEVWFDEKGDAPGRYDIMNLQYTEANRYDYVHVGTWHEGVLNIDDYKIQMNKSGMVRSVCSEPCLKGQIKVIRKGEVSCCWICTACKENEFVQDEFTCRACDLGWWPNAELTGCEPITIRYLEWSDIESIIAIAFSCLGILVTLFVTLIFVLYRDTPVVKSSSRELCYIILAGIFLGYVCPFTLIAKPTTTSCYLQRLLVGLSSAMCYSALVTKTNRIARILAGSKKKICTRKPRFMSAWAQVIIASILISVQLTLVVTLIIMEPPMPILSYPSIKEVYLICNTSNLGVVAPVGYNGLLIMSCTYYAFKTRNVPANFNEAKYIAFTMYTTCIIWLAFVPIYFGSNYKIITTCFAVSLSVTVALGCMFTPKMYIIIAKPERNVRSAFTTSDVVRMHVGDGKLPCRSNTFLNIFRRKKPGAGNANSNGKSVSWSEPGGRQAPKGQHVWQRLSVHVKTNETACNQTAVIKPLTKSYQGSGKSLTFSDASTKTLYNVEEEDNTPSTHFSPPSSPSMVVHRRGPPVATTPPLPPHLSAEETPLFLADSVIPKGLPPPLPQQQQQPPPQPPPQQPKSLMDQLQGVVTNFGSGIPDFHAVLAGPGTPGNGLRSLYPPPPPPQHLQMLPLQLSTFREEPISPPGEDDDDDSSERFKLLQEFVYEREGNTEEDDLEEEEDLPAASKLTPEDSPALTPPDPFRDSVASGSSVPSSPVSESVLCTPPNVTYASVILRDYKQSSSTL

Where a chain is given by its changes, count along the chain named. Results are given in words; binding and its absence hold for the method and conditions named. In cells and extracts the contact can be indirect. Some results given as binding are weak or reduced against the parent protein; the word gives no strength.

Assay in all cases: co-IP; cultured mouse cortical neurons transfected for 72 h with lentiviruses for wild-type or mutant mGluR1 or Homer1, 24 h after TNI; anti-Homer1 precipitation (stated for the Homer1 vectors), western blot for mGluR1 and Homer1
Background: In western blotting, separated proteins are transferred to a membrane and probed.

In assay [1] the target is T1, Homer1 (mouse (endogenous in cultured cortical neurons and cortex)) (UniProt Q9Z2Y3).
T1 sequence: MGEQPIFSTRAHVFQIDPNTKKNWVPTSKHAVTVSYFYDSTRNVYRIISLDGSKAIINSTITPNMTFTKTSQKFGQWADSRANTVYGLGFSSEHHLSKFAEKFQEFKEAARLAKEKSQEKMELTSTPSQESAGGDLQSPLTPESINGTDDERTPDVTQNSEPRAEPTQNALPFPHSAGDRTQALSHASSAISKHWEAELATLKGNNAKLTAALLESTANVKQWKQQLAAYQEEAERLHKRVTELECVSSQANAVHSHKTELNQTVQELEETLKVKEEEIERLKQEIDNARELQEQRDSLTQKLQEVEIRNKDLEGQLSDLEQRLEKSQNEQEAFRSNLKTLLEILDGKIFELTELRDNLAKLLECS

In assay [2] the target is T2, Homer1 with a dephosphomimetic hinge region mutation (S117A) (UniProt Q9Z2Y3).
T2 sequence: T1 sequence with S117A

The target of assay [3] is T3, Homer1 with a phosphomimetic hinge region mutation (S117D) (UniProt Q9Z2Y3).
T3 sequence: T1 sequence with S117D

On to “mGluR1 with a dephosphomimetic Homer-binding site mutation (S1154A) (from UniProt P97772 21-1199) (receptor)”, for which the binding result in assay [1] is given as “binds”.

Turning to “mGluR1 with a phosphomimetic Homer-binding site mutation (S1154D) (from UniProt P97772 21-1199) (receptor)”, in assay [1], the binding entry is given as “binds”.

Turning to “metabotropic glutamate receptor 1 (mGluR1) (from UniProt P97772 21-1199)”, the binding result in assay [2] and in assay [3] was “binds” throughout.
